According to patent US7781485B2, “Hsp90 family protein inhibitors” (Kyowa Hakko Kirin Co., Ltd., priority 2004, dated 2010):
Some of these results come from one statement about several compounds together.

Target: T1, Human N-terminal recombinant Hsp90 protein (region of amino acids 9 to 236) (Homo sapiens, UniProt P07900)
T1 construct: region of amino acids 9 to 236; made in house
Experiment: Hsp90 protein binding assay (competition with biotinylated Radicicol, time-resolved fluorescence)
Details: at concentrations below 10 μmol/L; biotinylated Radicicol 0.1 μmol/L

SMILES | inhibition of the binding of biotinylated Radicicol to the Hsp90 protein
O=C(NCc1ccccn1)c1c(O)cc(O)c(Cl)c1COCc1ccccc1 [Compound 9, 2-(Benzyloxymethyl)-3-chloro-4,6-dihydroxy-N-(pyridin-2-ylmethyl)benzamide] | more than 30%
O=C(NCc1ccccc1)c1c(O)cc(O)cc1COCc1ccccc1 [Compound 2, N-benzyl-2-(benzyloxymethyl)-4,6-dihydroxybenzamide] | more than 30%
